Measurements as given in doi:10.1101/284836.
No constants are given. Whether binding was seen depends on the method and setting. Binding seen in cells or lysates may run through a third protein. These calls come from enrichment with a bait or labelling near it, and not all partners need be listed. A no says only that the protein was not detected with the bait. Where a sequence is shown, tags or fusion partners need not be part of it.

Sequences of proteins named here, by UniProt entry; tags and fusion partners are left off.
UniProt P0A9K9: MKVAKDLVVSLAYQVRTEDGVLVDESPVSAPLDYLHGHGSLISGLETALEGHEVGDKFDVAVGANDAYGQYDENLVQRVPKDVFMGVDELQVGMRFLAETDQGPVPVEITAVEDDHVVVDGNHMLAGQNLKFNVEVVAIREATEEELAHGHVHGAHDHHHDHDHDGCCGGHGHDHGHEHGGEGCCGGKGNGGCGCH

Target: T1, EcSxyHIS (histidine-tagged E. coli Sxy) (E. coli) (UniProt P75869)
T1 sequence: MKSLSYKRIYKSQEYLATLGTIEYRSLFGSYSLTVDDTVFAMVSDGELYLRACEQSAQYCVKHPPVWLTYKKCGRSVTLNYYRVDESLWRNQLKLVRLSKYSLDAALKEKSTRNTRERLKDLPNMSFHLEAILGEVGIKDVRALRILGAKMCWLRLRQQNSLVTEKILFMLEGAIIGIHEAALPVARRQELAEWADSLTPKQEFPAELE
Experiment: affinity purification with mass spectrometry

Substance: SlyD (from UniProt P0A9K9 1-196)
- binding: no binding
